Measured values reported in patent US20150166671A1 (CHILDREN S MEDICAL CENTER, published 2015).
These are yes or no findings as the source states them, for the method shown. In cells and extracts the contact can be indirect. Some entries that bind do so weakly or less than the wild type. Tags and fused reporters may be left off the sequences shown.

Protein sequences, listed by entry. Tags and fused reporters are not part of them. Residues count along the entry.
UniProt P27467, residues 19-352: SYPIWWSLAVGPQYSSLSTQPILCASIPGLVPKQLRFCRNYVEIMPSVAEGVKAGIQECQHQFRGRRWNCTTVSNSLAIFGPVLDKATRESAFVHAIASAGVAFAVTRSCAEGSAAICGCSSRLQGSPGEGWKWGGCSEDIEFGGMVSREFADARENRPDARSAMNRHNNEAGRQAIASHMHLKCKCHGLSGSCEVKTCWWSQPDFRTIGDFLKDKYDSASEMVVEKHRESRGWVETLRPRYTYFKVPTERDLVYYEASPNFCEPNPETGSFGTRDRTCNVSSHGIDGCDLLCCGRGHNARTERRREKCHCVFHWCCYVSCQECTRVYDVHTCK

How the values were obtained:
Assay in all cases: co-immunoprecipitation from CM with an anti-FLAG antibody, Western blotting
Xwnt11 (Xenopus) = target: T1, Xwnt11 (Xenopus) (UniProt P49893)
T1 sequence (looked up): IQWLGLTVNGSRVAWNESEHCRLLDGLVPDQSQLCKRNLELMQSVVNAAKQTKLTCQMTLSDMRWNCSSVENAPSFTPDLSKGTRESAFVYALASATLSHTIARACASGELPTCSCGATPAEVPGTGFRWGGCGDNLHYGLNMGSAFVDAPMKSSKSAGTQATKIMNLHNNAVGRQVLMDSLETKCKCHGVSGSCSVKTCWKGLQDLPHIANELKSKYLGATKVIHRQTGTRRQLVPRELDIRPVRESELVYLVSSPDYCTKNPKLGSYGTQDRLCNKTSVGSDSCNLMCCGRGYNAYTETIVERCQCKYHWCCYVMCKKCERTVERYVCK

Xwnt8-Myc (Xenopus) = target: T2, Xwnt8-Myc (Xenopus) (UniProt P28026)
T2 sequence: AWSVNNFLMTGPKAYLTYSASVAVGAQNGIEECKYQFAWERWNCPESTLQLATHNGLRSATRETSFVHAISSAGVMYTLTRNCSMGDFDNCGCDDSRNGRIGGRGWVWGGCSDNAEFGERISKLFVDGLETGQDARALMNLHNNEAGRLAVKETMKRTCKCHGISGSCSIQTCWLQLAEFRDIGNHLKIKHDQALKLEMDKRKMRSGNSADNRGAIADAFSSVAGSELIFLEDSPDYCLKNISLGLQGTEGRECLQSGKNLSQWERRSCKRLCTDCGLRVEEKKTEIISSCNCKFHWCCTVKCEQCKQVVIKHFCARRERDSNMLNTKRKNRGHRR

mouse Wnt3a (mouse) = mouse Wnt3a (mouse) (UniProt P27467)

Measured: binding

B1: TIKI2N-FLAG-6xHIS (enzyme, not shown: small tags and cut ends)
chain: RPQPPDGGQCRPPGSQRDLNSFLWTIRRDPPAYLFGTIHVPYTRVWDFIPDNSKAAFQASTRVYFELDLTDPYTISALASCQLLPHGENLQDVLPHELYWRLKRHLDYVKLMMPSWMTPAQRGKGLYADYLFNAIAGNWERKRPVWVMLMVNSLTERDVRFRGVPVLDLYLAQQAEKMKKTTGAVEQVEEQCHPLNNGLNFSQVLFALNQTLLQQESVRAGSLQASYTTEDLIKHYNCGDLSAVIFNHDTSQLPNFINTTLPPHEQVTAQEIDSYFRQELIYKRNERMGKRVMALLRENEDKICFFAFGAGHFLGNNTVIDILRQAGLEVDHTPAGQAIHSPAPQSPAPSPEGTSTSPAPVTPAAAVPEAPSVTPTAPPEDEDPALSPHLLLPDSLSQLEEFGRQRKWHKRQSTHQRPRQFNDLWVRIEDSTTASPPPLPLQPTHSSGTAKPPFQLSDQLQQQDPPG
binds: all assays above
